The other results are listed elsewhere or left out. Repeats are few or missing, and single values can be far off.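 Cells were imaged in 1,536-well plates, and nuclei stained with an antibody against cleaved PARP were counted against all DNA-stained nuclei to give the apoptosis fraction. Screening doses were chosen to leave most cells alive, and resting and induced cleaved-PARP levels differ strongly between cell lines.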
These molecules were tested on LB2518-MEL (assay: cleaved PARP positive nuclei fraction relative to DMSO control; melanoma cells; higher = more apoptosis). Details: library dose: low library concentration; 72 h.

Row | SMILES | cleaved PARP positive nuclei fraction [%]
1 | CCCS(=O)(=O)Nc1ccc(F)c(C(=O)c2c[nH]c3ncc(Cl)cc23)c1F + Oc1nc(-c2ccc(C(F)(F)F)cc2)nc2c1CSCC2 [XAV939] (first compound 0.08 µM, partner dose 2 µM) | 64.3
2 | Nc1nc(F)nc2c1ncn2[C@@H]1O[C@H](CO)[C@@H](O)[C@@H]1O [fludarabine] + COc1ccc(-c2ccc3c(N4CCOCC4)nc(N4C[C@@H](C)O[C@@H](C)C4)nc3n2)cc1CO [KU0063794] (first compound 0.2 µM, partner dose 0.02 µM) | 68.8
3 | CS(=O)(=O)CCNCc1ccc(-c2ccc3ncnc(Nc4ccc(OCc5cccc(F)c5)c(Cl)c4)c3c2)o1 [lapatinib] + O=C(Nc1ccccc1)c1cc([N+](=O)[O-])ccc1Cl [GW9662] (first compound 0.8 µM, partner dose 2 µM) | 43.3
4 | C=C(c1ccc(C(=O)O)cc1)c1cc2c(cc1C)C(C)(C)CCC2(C)C [Bexarotene] + CCc1ccc(CCOc2ccc(CC3SC(=O)NC3=O)cc2)nc1 [pioglitazone] (first compound 2 µM, partner dose 2 µM) | 81.7
5 | C=C(c1ccc(C(=O)O)cc1)c1cc2c(cc1C)C(C)(C)CCC2(C)C [Bexarotene] + c1cc(-c2cnn3cc(-c4ccc(OCCN5CCCCC5)cc4)cnc23)ccn1 [Dorsomorphin] (first compound 2 µM, partner dose 0.4 µM) | 122
6 | CS(=O)(=O)CCNCc1ccc(-c2ccc3ncnc(Nc4ccc(OCc5cccc(F)c5)c(Cl)c4)c3c2)o1 [lapatinib] + COc1cc(N2CCC(N3CCN(C)CC3)CC2)ccc1Nc1ncc(Cl)c(Nc2ccccc2S(=O)(=O)C(C)C)n1 [NVP-TAE684] (first compound 0.8 µM, partner dose 0.08 µM) | 61.6
7 | CNC(=O)c1cc(Oc2ccc(NC(=O)Nc3ccc(Cl)c(C(F)(F)F)c3)cc2)ccn1 [sorafenib] + CCN(CC)CCCCNc1ncc2cc(-c3cc(OC)cc(OC)c3)c(NC(=O)NC(C)(C)C)nc2n1 [PD173074] (first compound 0.4 µM, partner dose 0.1 µM) | 27.4
8 | CO[C@H]1C[C@@H]2CC[C@@H](C)[C@@](O)(O2)C(=O)C(=O)N2CCCC[C@H]2C(=O)O[C@H]([C@H](C)C[C@@H]2CC[C@@H](OCCO)[C@H](OC)C2)CC(=O)[C@H](C)/C=C(\C)[C@@H](O)[C@@H](OC)C(=O)[C@H](C)C[C@H](C)/C=C/C=C/C=C/1C [everolimus] + O=C1NC(=O)/C(=C/c2ccc(-c3ccc(F)cc3O)o2)S1 [AS252424] (first compound 0.02 µM, partner dose 1 µM) | 93.2
